These are yes or no findings as the source states them, for the method shown. Binding seen in cells or lysates may run through a third protein. Some binding calls cover weakened binding; strength is not graded here. For some assays here: Where a sequence is shown, tags or fusion partners need not be part of it.
B1: S100A14 (SA14), stably overexpressed from pCMV6-Myc-DDK-SA14 in HCT/FuR-SA14 cells, Q9HCY8 1-104 (protein)
chain: MGQCRSANAEDAQEFSDVERAIETLIKNFHQYSVEGGKETLTPSELRDLVTQQLPHLMPSNCGLEEKIANLGSCNDSKLEFRSFWELIGEAAKSVKLERPVRGH
B2: S100A14 (SA14), endogenous in parental HCT116 (HCT/P) cells, Q9HCY8 1-104 (protein)
chain: B1 chain

How the values were obtained:
[1] = biological target: signal transducer and activator of transcription 3 (STAT3), endogenous in chemoresistant HCT116 sublines (human (endogenous in HCT116 sublines)), P40763; test: co-IP; lysates of MG132-pretreated HCT/FuR-SA14 cells precipitated with anti-STAT3 or anti-SA14 antibodies, Western blot for SA14 and STAT3; conditions: remark: other sources report otherwise
[2] = biological target: GST-tagged full-length STAT3 (GST-STAT3), P40763; test: pull-down; GSH-agarose-bound recombinant GST-STAT3 incubated with whole-cell lysate from HCT/P cells; GSH-agarose-bound GST as control; only the target purified; conditions: remark: other sources report otherwise

binding [1]	binding [2]	Binder
binds	–	B1
–	binds	B2

From paper PMC9299575
